One substance from article PMC6952796 can be followed below.

Protein sequences, listed by entry. Tags and fused reporters are not part of them.
UniProt P00441: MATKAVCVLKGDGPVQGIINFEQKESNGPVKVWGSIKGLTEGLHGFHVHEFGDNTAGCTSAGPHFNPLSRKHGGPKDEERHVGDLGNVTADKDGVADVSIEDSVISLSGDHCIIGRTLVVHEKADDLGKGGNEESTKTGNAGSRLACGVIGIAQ
UniProt P07237: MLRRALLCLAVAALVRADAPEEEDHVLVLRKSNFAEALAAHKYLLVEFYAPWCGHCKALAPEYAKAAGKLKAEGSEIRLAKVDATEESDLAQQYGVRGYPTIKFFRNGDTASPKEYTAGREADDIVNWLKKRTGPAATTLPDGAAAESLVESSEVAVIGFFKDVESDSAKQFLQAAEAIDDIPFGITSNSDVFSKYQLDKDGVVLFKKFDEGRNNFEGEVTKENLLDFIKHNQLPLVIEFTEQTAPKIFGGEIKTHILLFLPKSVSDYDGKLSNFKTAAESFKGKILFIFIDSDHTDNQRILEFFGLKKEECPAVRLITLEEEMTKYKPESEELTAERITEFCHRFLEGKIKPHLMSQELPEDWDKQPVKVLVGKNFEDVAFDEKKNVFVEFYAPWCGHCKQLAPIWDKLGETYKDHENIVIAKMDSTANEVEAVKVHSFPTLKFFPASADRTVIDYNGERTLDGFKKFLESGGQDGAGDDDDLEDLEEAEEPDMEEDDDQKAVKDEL

These are yes or no findings as the source states them, for the method shown. Some results given as binding are weak or reduced against the parent protein; the word gives no strength.

This assay addresses superoxide dismutase 1 wild type (SOD1WT), full length, in pGBKT7 (human) (UniProt P00441). The assay is described as follows: two-hybrid; SOD1WT or SOD1G93A in pGBKT7, PDI in pGADT7, yeast Y2HGold; growth on media with X-alpha-Gal without leucine, tryptophan and histidine.

With “protein disulphide isomerase (PDI), full length, in pGADT7 (from UniProt P07237 1-508)”, the binding entry is given as “binds”.
